Results as given in PubChem BioAssay AID901 (National Center for Advancing Translational Sciences (NCATS), 2007).
Some of the results follow. These are further read-outs of the screen, such as a control signal, another cell line or another target. No call is given for them. Most of these compounds were active or inconclusive in the main read-out, so they are no random draw. The note in brackets gives the kind of curve behind each potency; many fits are weak.

Experiment: qHTS Assay for Identifying the Cell-Membrane Permeable IMPase Inhibitors
Conditions: CHO-M1 cells, IP1 accumulation, HTRF TR-FRET ratio; measured here: donor channel 620 nm AC50

Row | Compound | AC50
1 | Cc1cc(C)n(Cc2ccc(NC(=O)c3nn(C)cc3[N+](=O)[O-])cc2)n1 | 63.1 nM [falling, full curve, poor fit]
2 | O=C(CSc1nc(-c2ccc(F)cc2)cc(C(F)(F)F)n1)NCCc1ccccc1 | 141 nM [falling, full curve]
3 | CCn1nnnc1SCC(=O)c1ccc2c(c1)OCCO2 | 15800 nM [rising, single point]
4 | COc1ccc(CNC(=O)CCc2nc(-c3ccc(C)cc3)no2)c(OC)c1 | 22400 nM [rising, partial curve, poor fit]
5 | CCCNC(=O)c1ccc2snnc2c1 | 631 nM [rising, full curve, poor fit]
6 | Cc1[nH]n2c(=O)cc(C(C)(C)C)nc2c1-c1ccccc1 | 3160 nM [rising, single point]
7 | CCN1C(=O)c2ccccc2S(=O)(=O)c2ccc(C(=O)NCc3cccnc3)cc21 | 5620 nM [rising, single point]
8 | CCCCCCCCCCCNC(=O)c1ccoc1C | 6310 nM [falling, single point]
9 | O=CNNC(=O)c1cccc([N+](=O)[O-])c1 | 4.47 nM [rising, full curve, poor fit]
10 | O=C(O)[C@H]1CCCC[C@H]1C(=O)Nc1ccc(Nc2ccccc2)cc1 | 1000 nM [falling, full curve]
11 | O=C(OC1CCCCC1=O)c1cc(=O)c2ccccc2o1 (configuration not stated) | 3160 nM [falling, single point]
12 | Cc1ccc(-c2csc3nnc(SCC(=O)N4CCN(Cc5ccccc5)CC4)n23)cc1 | 3160 nM [falling, single point]
13 | Cc1nc2c(c(=O)n1CCC1=CCCCC1)c1nc3ccccc3nc1n2/N=C/c1ccco1 | 5.01 nM [falling, full curve, poor fit]
14 | O=C(CSc1ccc(-c2cccs2)nn1)NCc1ccccc1Cl | 11200 nM [rising, single point]
15 | CC1(C)CC(=O)c2cnc(NC(=O)CCc3ccccc3)nc2C1 | 4470 nM [falling, full curve, poor fit]
16 | COc1cc(NC(=O)c2ccccc2)cc(OC)c1 | 31600 nM [falling, single point]
17 | CCOC(=O)c1ccc(NCc2nc3ccccc3n2C)cc1 | 3980 nM [rising, full curve]
18 | O=C(NCc1ccco1)c1ccc(C(=O)NCc2ccco2)s1 | 126 nM [falling, full curve, poor fit]
19 | O=C(CO)N/N=C/c1ccccc1F | 10000 nM [falling, partial curve, poor fit]
20 | CCOC(=O)c1c(C)n(-c2ccc(OC)cc2)c2ccc(OC(=O)COc3ccccc3)cc12 | 10000 nM [falling, partial curve, poor fit]
21 | COc1ccc(CCN2C(=O)C(O)=C(C(=O)c3ccco3)C2c2cccs2)cc1OC (configuration not stated) | 12600 nM [rising, partial curve]

Row | Compound | AC50
22 | CCCC(=O)Nc1c(C(=O)OCC)[nH]c2ccccc12 | 1120 nM [falling, partial curve, poor fit]
23 | CC(=NCCN1CCNCC1)C1=C(O)CC(C)(C)CC1=O | 3980 nM [rising, partial curve]
24 | CC(C)n1c(SCC(=O)Nc2ccc3c(c2)OCO3)nc2c1c(=O)n(C)c(=O)n2C | 158 nM [rising, full curve, poor fit]
25 | CC(=O)Nc1ccc(S(=O)(=O)N2CCN(C(=O)c3ccccc3F)CC2)cc1 | 1410 nM [falling, partial curve]
26 | CS(=O)(=O)N1CCC(c2noc(-c3ccc(C(F)(F)F)cc3)n2)CC1 | 11200 nM [rising, single point]
27 | CCOc1ccc(NC(=O)CN(C)CC(=O)Nc2ccccc2C#N)cc1OCC | 1000 nM [rising, full curve]
28 | O=C(CCc1nc(-c2ccccc2F)no1)NCCN1CCOCC1 | 3980 nM [falling, single point]
29 | Nn1c(SCC(=O)NC2CCCCC2)nnc1-c1ccc(Cl)cc1 | 15.8 nM [falling, partial curve]
30 | COC(=O)c1ccc(CSc2nnc(NC(=O)c3cc4c(s3)CCCC4)s2)cc1 | 251 nM [falling, full curve]
31 | COc1ccc(OC)c(NC(=O)CC(NCCC2=CCCCC2)C(=O)O)c1 (configuration not stated) | 158 nM [falling, full curve, poor fit]
32 | COc1ccc(-n2c(=O)cc(N3CCN(c4ccccc4)CC3)[nH]c2=O)cc1 | 5.01 nM [falling, full curve, poor fit]
33 | O=C(CSc1nnc(CNC(=O)c2ccco2)o1)NC1CCCC1 | 100 nM [falling, full curve, poor fit]
34 | COc1ccc(Cl)cc1S(=O)(=O)Nc1ccc2[nH]c(=O)[nH]c2c1 | 3550 nM [falling, single point]
35 | CCc1nn(C(C)C(=O)NC(C)CCc2ccco2)c(=O)c2cc3occc3n12 (configuration not stated) | 10000 nM [falling, partial curve]
36 | Cc1ccc(Cl)cc1N1CCN(C(=O)CCS(=O)(=O)c2cc(Br)cc3c2N(C(=O)C2CC2)CC3)CC1 | 28.2 nM [falling, full curve]
37 | CCc1nnc(NC(=O)CSc2nnc(Cc3ccccc3)n2-c2ccc(OC)cc2)s1 | 158 nM [rising, full curve, poor fit]
38 | O=C(Cn1c(CN2CCCCC2)nc2ccccc2c1=O)NC1CCCCC1 | 2000 nM [falling, full curve, poor fit]
39 | CC(C)N(Cc1nc(-c2ccccc2)no1)C(=O)CN(C)S(=O)(=O)c1ccc(Br)cc1 | 1580 nM [falling, partial curve]
40 | CCOC(=O)N1CCN(C(=O)c2cc(S(=O)(=O)N3CCCC3)cn2C)CC1 | 63.1 nM [falling, full curve, poor fit]
41 | Cc1noc(C)c1S(=O)(=O)NCCCN1CCN(Cc2ccccc2)CC1 | 79.4 nM [falling, full curve, poor fit]
42 | CC(C)COP(=O)(OCC(C)C)C(O)c1ccc(F)cc1 (configuration not stated) | 447 nM [falling, partial curve]
